The name of at least one read-out is uncertain.
Assay: Dose linearity and effect of feeding, PK in cats (Example 10)
Assay type: in vivo, cat
Conditions: oral capsule at 2 mg/kg
Procedure: Grapiprant was blended in a mixture of excipients as shown in Table 14 and administered orally by capsule to male and female cats.
The day of dosing was defined as Day 0. Following dosing, the animals were evaluated for clinical signs. Blood samples were collected prior to dosing and at 0.25, 0.5, 1, 2, 4, 8, 12, and 24-hours postdose. The blood samples were processed to serum and analyzed for grapiprant concentration. There were no test article-related clinical signs. The mean grapiprant pharmacokinetic results were as follow in Table 16.

CCc1nc2c(C)nc(C)cc2n1-c1ccc(CCNC(=O)NS(=O)(=O)c2ccc(C)cc2)cc1 [grapiprant, N-{2-[4-(2-ethyl-4,6-dimethyl-1H-imidazo[4,5-c]pyridin-1-yl)phenyl]ethyl}-N′-[(4-methylphenyl)sulfonyl]urea]
effect of feeding on Cmax and AUCs: significantly higher (p<0.05) in fasted cats than in fed cats for both males and females
